# Results taken from the supplement of paper PMC8728848.
# Some of the results follow.
# B1: Gal 12 (Homo sapiens), Q96DT0 (protein)
# chain: MSQPSGGRAPGTRIYSWSCPTVMSPGEKLDPIPDSFILQPPVFHPVVPYVTTIFGGLHAGKMVMLQGVVPLDAHRFQVDFQCGCSLCPRPDIAFHFNPRFHTTKPHVICNTLHGGRWQREARWPHLALRRGSSFLILFLFGNEEVKVSVNGQHFLHFRYRLPLSHVDTLGIFGDILVEAVGFLNINPFVEGSREYPAGHPFLLMSPRLEVPCSHALPQGLSPGQVIIVRGLVLQEPKHFTVSLRDQAAHAPVTLRASFADRTLAWISRWGQKKLISAPFLFYPQRFFEVLLLFQEGGLKLALNGQGLGATSMNQQALEQLRELRISGSVQLYCVHS
# Key:
# Experiment in all cases: glycan array binding signal (z-score within array); higher = stronger binding
# Conditions in all cases: glycan notation: IUPAC condensed, linker removed
# [1] = biological target: GlcNAc(a1-4)Gal(b1-4)GalNAc
# Outline: (§1)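 Columns mapping to the same glycan were averaged after glycan names were converted to IUPAC-condensed notation. The data come from 3228 arrays in the Consortium for Functional Glycomics database, limited to those with an available protein sequence. Binding is reported as a within-array Z-score averaged across arrays of one protein sequence and across linkers.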
# [2] = biological target: GlcNAc(a1-4)Gal(b1-4)GlcNAc
# Outline: as §1
# [3] = biological target: GlcNAc(a1-4)Gal(b1-4)GlcNAc(b1-3)Gal(b1-4)Glc
# Outline: as §1
# [4] = biological target: GlcNAc(a1-4)Gal(b1-4)GlcNAc(b1-3)Gal(b1-4)GlcNAc
# Outline: as §1
# [5] = biological target: GlcNAc(a1-4)Gal(b1-4)GlcNAc(b1-3)Gal(b1-4)GlcNAc(b1-3)Gal(b1-4)GlcNAc
# Outline: as §1
# [6] = biological target: GlcNAc(a1-4)Gal(b1-4)GlcNAc(b1-3)Gal(b1-4)[Fuc(a1-3)]GlcNAc(b1-3)Gal(b1-4)[Fuc(a1-3)]GlcNAc
# Outline: as §1
# [7] = biological target: GlcNAc(a1-6)Gal(b1-4)GlcNAc
# Outline: as §1
# [8] = biological target: GlcNAc(b1-2)Gal(b1-3)GalNAc
# Outline: as §1
# [9] = biological target: GlcNAc(b1-2)Man(a1-3)[GlcNAc(b1-2)Man(a1-6)]Man(b1-4)GlcNAc(b1-4)GlcNAc
# Outline: as §1
# [10] = biological target: GlcNAc(b1-2)Man(a1-3)[GlcNAc(b1-2)Man(a1-6)]Man(b1-4)GlcNAc(b1-4)[Fuc(a1-6)]GlcNAc
# Outline: as §1
# [11] = biological target: GlcNAc(b1-2)Man(a1-3)[GlcNAc(b1-4)][GlcNAc(b1-2)Man(a1-6)]Man(b1-4)GlcNAc(b1-4)GlcNAc
# Outline: as §1
# [12] = biological target: GlcNAc(b1-2)Man(a1-3)[GlcNAc(b1-4)][GlcNAc(b1-2)Man(a1-6)]Man(b1-4)GlcNAc(b1-4)[Fuc(a1-6)]GlcNAc
# Outline: as §1
# [13] = biological target: GlcNAc(b1-2)[GlcNAc(b1-4)]Man(a1-3)[GlcNAc(b1-2)Man(a1-6)]Man(b1-4)GlcNAc(b1-4)GlcNAc
# Outline: as §1
# [14] = biological target: GlcNAc(b1-2)[GlcNAc(b1-4)]Man(a1-3)[GlcNAc(b1-4)][GlcNAc(b1-2)Man(a1-6)]Man(b1-4)GlcNAc(b1-4)GlcNAc
# Outline: as §1
# [15] = biological target: GlcNAc(b1-2)[GlcNAc(b1-4)]Man(a1-3)[GlcNAc(b1-4)][GlcNAc(b1-2)[GlcNAc(b1-6)]Man(a1-6)]Man(b1-4)GlcNAc(b1-4)GlcNAc
# Outline: as §1
# [16] = biological target: GlcNAc(b1-2)[GlcNAc(b1-4)]Man(a1-3)[GlcNAc(b1-4)][GlcNAc(b1-2)[GlcNAc(b1-6)]Man(a1-6)]Man(b1-4)GlcNAc(b1-4)[Fuc(a1-6)]GlcNAc
# Outline: as §1
# [17] = biological target: GlcNAc(b1-2)[GlcNAc(b1-6)]Man(a1-6)[GlcNAc(b1-2)Man(a1-3)]Man(b1-4)GlcNAc(b1-4)GlcNAc
# Outline: as §1
# [18] = biological target: GlcNAc(b1-2)[GlcNAc(b1-6)]Man(a1-6)[GlcNAc(b1-2)Man(a1-3)]Man(b1-4)GlcNAc(b1-4)[Fuc(a1-6)]GlcNAc
# Outline: as §1
# [19] = biological target: GlcNAc(b1-2)[GlcNAc(b1-6)]Man(a1-6)[GlcNAc(b1-2)Man(a1-3)][GlcNAc(b1-4)]Man(b1-4)GlcNAc(b1-4)GlcNAc
# Outline: as §1
# [20] = biological target: GlcNAc(b1-2)[GlcNAc(b1-6)]Man(a1-6)[GlcNAc(b1-4)][GlcNAc(b1-2)Man(a1-3)]Man(b1-4)GlcNAc(b1-4)GlcNAc
# Outline: as §1
# GlcNAc(b1-3)Fuc = biological target: GlcNAc(b1-3)Fuc
# Outline: as §1
# GlcNAc(b1-3)Gal = biological target: GlcNAc(b1-3)Gal
# Outline: as §1
# [21] = biological target: GlcNAc(b1-3)Gal(b1-3)GalNAc
# Outline: as §1
# GlcNAc(b1-3)Gal(b1-4)Glc = biological target: GlcNAc(b1-3)Gal(b1-4)Glc
# Outline: as §1
# [22] = biological target: GlcNAc(b1-3)Gal(b1-4)GlcNAc
# Outline: as §1
# [23] = biological target: GlcNAc(b1-3)Gal(b1-4)GlcNAc(b1-2)Man(a1-3)[GlcNAc(b1-3)Gal(b1-4)GlcNAc(b1-2)Man(a1-6)]Man(b1-4)GlcNAc(b1-4)GlcNAc
# Outline: as §1
# [24] = biological target: GlcNAc(b1-3)Gal(b1-4)GlcNAc(b1-2)Man(a1-3)[GlcNAc(b1-3)Gal(b1-4)GlcNAc(b1-2)Man(a1-6)]Man(b1-4)GlcNAc(b1-4)[Fuc(a1-6)]GlcNAc
# Outline: as §1
# [25] = biological target: GlcNAc(b1-3)Gal(b1-4)GlcNAc(b1-2)[GlcNAc(b1-3)Gal(b1-4)GlcNAc(b1-6)]Man(a1-6)[GlcNAc(b1-3)Gal(b1-4)GlcNAc(b1-2)Man(a1-3)]Man(b1-4)GlcNAc(b1-4)GlcNAc
# Outline: as §1
# [26] = biological target: GlcNAc(b1-3)Gal(b1-4)GlcNAc(b1-3)Gal(b1-4)GlcNAc
# Outline: as §1
# [27] = biological target: GlcNAc(b1-3)Gal(b1-4)GlcNAc(b1-3)Gal(b1-4)GlcNAc(b1-2)Man(a1-3)[GlcNAc(b1-3)Gal(b1-4)GlcNAc(b1-3)Gal(b1-4)GlcNAc(b1-2)Man(a1-6)]Man(b1-4)GlcNAc(b1-4)GlcNAc
# Outline: as §1
# [28] = biological target: GlcNAc(b1-3)Gal(b1-4)GlcNAc(b1-3)Gal(b1-4)GlcNAc(b1-2)Man(a1-3)[GlcNAc(b1-3)Gal(b1-4)GlcNAc(b1-3)Gal(b1-4)GlcNAc(b1-2)Man(a1-6)]Man(b1-4)GlcNAc(b1-4)[Fuc(a1-6)]GlcNAc
# Outline: as §1
# [29] = biological target: GlcNAc(b1-3)Gal(b1-4)GlcNAc(b1-3)Gal(b1-4)GlcNAc(b1-2)[GlcNAc(b1-3)Gal(b1-4)GlcNAc(b1-3)Gal(b1-4)GlcNAc(b1-6)]Man(a1-6)[GlcNAc(b1-3)Gal(b1-4)GlcNAc(b1-3)Gal(b1-4)GlcNAc(b1-2)Man(a1-3)]Man(b1-4)GlcNAc(b1-4)[Fuc(a1-6)]GlcNAc
# Outline: as §1
# [30] = biological target: GlcNAc(b1-3)Gal(b1-4)GlcNAc(b1-3)Gal(b1-4)GlcNAc(b1-3)Gal(b1-4)GlcNAc(b1-2)Man(a1-3)[GlcNAc(b1-3)Gal(b1-4)GlcNAc(b1-3)Gal(b1-4)GlcNAc(b1-3)Gal(b1-4)GlcNAc(b1-2)Man(a1-6)]Man(b1-4)GlcNAc(b1-4)GlcNAc
# Outline: as §1
# [31] = biological target: GlcNAc(b1-3)Gal(b1-4)GlcNAc(b1-3)Gal(b1-4)GlcNAc(b1-3)Gal(b1-4)GlcNAc(b1-2)Man(a1-3)[GlcNAc(b1-3)Gal(b1-4)GlcNAc(b1-3)Gal(b1-4)GlcNAc(b1-3)Gal(b1-4)GlcNAc(b1-2)Man(a1-6)]Man(b1-4)GlcNAc(b1-4)[Fuc(a1-6)]GlcNAc
# Outline: as §1
# [32] = biological target: GlcNAc(b1-3)Gal(b1-4)GlcNAc(b1-3)Gal(b1-4)GlcNAc(b1-3)Gal(b1-4)GlcNAc(b1-2)[GlcNAc(b1-3)Gal(b1-4)GlcNAc(b1-3)Gal(b1-4)GlcNAc(b1-3)Gal(b1-4)GlcNAc(b1-6)]Man(a1-6)[GlcNAc(b1-3)Gal(b1-4)GlcNAc(b1-3)Gal(b1-4)GlcNAc(b1-3)Gal(b1-4)GlcNAc(b1-2)Man(a1-3)]Man(b1-4)GlcNAc(b1-4)[Fuc(a1-6)]GlcNAc
# Outline: as §1
# [33] = biological target: GlcNAc(b1-3)Gal(b1-4)GlcNAc(b1-3)Gal(b1-4)GlcNAc(b1-3)Gal(b1-4)GlcNAc(b1-3)Gal(b1-4)GlcNAc(b1-2)Man(a1-3)[GlcNAc(b1-3)Gal(b1-4)GlcNAc(b1-3)Gal(b1-4)GlcNAc(b1-3)Gal(b1-4)GlcNAc(b1-3)Gal(b1-4)GlcNAc(b1-2)Man(a1-6)]Man(b1-4)GlcNAc(b1-4)GlcNAc
# Outline: as §1
# [34] = biological target: GlcNAc(b1-3)Gal(b1-4)GlcNAc(b1-3)Gal(b1-4)GlcNAc(b1-3)Gal(b1-4)GlcNAc(b1-3)Gal(b1-4)GlcNAc(b1-2)Man(a1-3)[GlcNAc(b1-3)Gal(b1-4)GlcNAc(b1-3)Gal(b1-4)GlcNAc(b1-3)Gal(b1-4)GlcNAc(b1-3)Gal(b1-4)GlcNAc(b1-2)Man(a1-6)]Man(b1-4)GlcNAc(b1-4)[Fuc(a1-6)]GlcNAc
# Outline: as §1
# [35] = biological target: GlcNAc(b1-3)Gal(b1-4)GlcNAc(b1-3)Gal(b1-4)GlcNAc(b1-3)Gal(b1-4)GlcNAc(b1-3)Gal(b1-4)GlcNAc(b1-2)[GlcNAc(b1-3)Gal(b1-4)GlcNAc(b1-3)Gal(b1-4)GlcNAc(b1-3)Gal(b1-4)GlcNAc(b1-3)Gal(b1-4)GlcNAc(b1-6)]Man(a1-6)[GlcNAc(b1-3)Gal(b1-4)GlcNAc(b1-3)Gal(b1-4)GlcNAc(b1-3)Gal(b1-4)GlcNAc(b1-3)Gal(b1-4)GlcNAc(b1-2)Man(a1-3)]Man(b1-4)GlcNAc(b1-4)[Fuc(a1-6)]GlcNAc
# Outline: as §1
binder,measurement,setting,value
B1,glycan array binding signal (z-score),[1],0.306
same,glycan array binding signal (z-score),[2],-0.623
same,glycan array binding signal (z-score),[3],-0.343
same,glycan array binding signal (z-score),[4],0.578
same,glycan array binding signal (z-score),[5],-0.296
same,glycan array binding signal (z-score),[6],-0.21
same,glycan array binding signal (z-score),[7],0.232
same,glycan array binding signal (z-score),[8],-0.498
same,glycan array binding signal (z-score),[9],-0.422
same,glycan array binding signal (z-score),[10],1.07
same,glycan array binding signal (z-score),[11],0.085
same,glycan array binding signal (z-score),[12],-0.742
same,glycan array binding signal (z-score),[13],-0.412
same,glycan array binding signal (z-score),[14],-0.471
same,glycan array binding signal (z-score),[15],-0.847
same,glycan array binding signal (z-score),[16],-0.724
same,glycan array binding signal (z-score),[17],1.31
same,glycan array binding signal (z-score),[18],1.21
same,glycan array binding signal (z-score),[19],-0.54
same,glycan array binding signal (z-score),[20],-0.375
same,glycan array binding signal (z-score),GlcNAc(b1-3)Fuc,1.75
same,glycan array binding signal (z-score),GlcNAc(b1-3)Gal,0.174
same,glycan array binding signal (z-score),[21],-0.161
same,glycan array binding signal (z-score),GlcNAc(b1-3)Gal(b1-4)Glc,0.336
same,glycan array binding signal (z-score),[22],-0.475
same,glycan array binding signal (z-score),[23],-0.208
same,glycan array binding signal (z-score),[24],0.261
same,glycan array binding signal (z-score),[25],1.32
same,glycan array binding signal (z-score),[26],-0.608
same,glycan array binding signal (z-score),[27],1.62
same,glycan array binding signal (z-score),[28],0.919
same,glycan array binding signal (z-score),[29],0.115
same,glycan array binding signal (z-score),[30],0.01
same,glycan array binding signal (z-score),[31],0.526
same,glycan array binding signal (z-score),[32],-0.532
same,glycan array binding signal (z-score),[33],-0.232
same,glycan array binding signal (z-score),[34],-0.857
same,glycan array binding signal (z-score),[35],0.411

# Fetched one by one from the entries so far, 3 records:
binder,measurement,setting,value
B1,glycan array binding signal (z-score),[33],-0.232
same,glycan array binding signal (z-score),[3],-0.343
same,glycan array binding signal (z-score),[6],-0.21
